In the supplement of paper PMC8256030:
“And” between values parts separate entries of the source, which are not always exact repeats. Equal entries are not always repeated. This is one part of the list. Single values are uncertain here, since repeats match poorly.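 HEK293T cells were given each compound shortly before transfection with a reporter in which red mCherry is followed by the SARS-CoV-2 frameshift element and then GFP in the −1 frame, so GFP appears only after frameshifting.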

Test system: HEK293T
Assay: percent viability (nuclei count) relative to control; higher = more viable cells
Conditions: 10 µM; 24 h

Structure (SMILES): Oc1ccc(OCc2ccccc2)cc1 [monobenzone]
- percent viability: 65.6%

Structure (SMILES): CCN(CC)CCNC(=O)c1ccc(NC(C)=O)cc1
- percent viability: 398%

Structure (SMILES): C1COC(NC(C2CC2)C2CC2)=N1 [rilmenidine]
- percent viability: 124%

Structure (SMILES): COc1ccc(Cl)cc1C(=O)NCCc1ccc(S(=O)(=O)NC(=O)NC2CCCCC2)cc1 [Glyburide]
- percent viability: 337%

Structure (SMILES): CN1CCN(c2cc3c(nn2)Oc2ccccc2N3C)CC1 [pipofezine]
- percent viability: 269%

Structure (SMILES): CCC[C@H](NC(=O)[C@@H]1[C@H]2CCC[C@H]2CN1C(=O)[C@@H](NC(=O)[C@@H](NC(=O)c1cnccn1)C1CCCCC1)C(C)(C)C)C(=O)C(=O)NC1CC1 [Incivik]
- percent viability: 94.1%

Structure (SMILES): CN1C(=O)CC(C)(c2ccccc2)C1=O (stereo not drawn) [mesuximide]
- percent viability: 43.8%

Structure (SMILES): CC(=O)S[C@@H]1CC2=CC(=O)CC[C@]2(C)[C@H]2CC[C@@]3(C)[C@@H](CC[C@@]34CCC(=O)O4)[C@H]12 [spironolactone]
- percent viability: 181% and 183%

Structure (SMILES): CC(C)CC1Nc2cc(Cl)c(S(N)(=O)=O)cc2S(=O)(=O)N1 (stereo not drawn) [butizide]
- percent viability: 142%

Structure (SMILES): Nc1nnnn1-c1ccccc1 [fenamole]
- percent viability: 31.8%

Structure (SMILES): CC(C)N(CCC(CCN1CCCCC1)(C(N)=O)c1ccccc1Cl)C(C)C (stereo not drawn) [disobutamide]
- percent viability: 85.8%

Structure (SMILES): O=C1Nc2ccc(Cl)cc2[C@@](C#CC2CC2)(C(F)(F)F)O1 [efavirenz]
- percent viability: 186%

Structure (SMILES): C[C@@H](O)[C@@H]1NC(=O)[C@H](CCCCN)NC(=O)[C@@H](Cc2c[nH]c3ccccc23)NC(=O)[C@H](Cc2ccccc2)NC(=O)[C@@H](NC(=O)[C@H](N)Cc2ccccc2)CSSC[C@@H](C(=O)N[C@H](CO)[C@@H](C)O)NC1=O [Octreotide]
- percent viability: 193% and 344%

Structure (SMILES): NC(=O)NCCN1CCN(c2cccc(C(F)(F)F)c2)CC1 [fluprazine]
- percent viability: 239%

Structure (SMILES): CNC(=O)[C@H](Cc1c[nH]c2ccccc12)NC(=O)[C@@H](CC(=O)NO)CC(C)C [ilomastat]
- percent viability: 284%

Structure (SMILES): CCc1c2c(nc3ccc(OC(=O)N4CCC(N5CCCCC5)CC4)cc13)-c1cc3c(c(=O)n1C2)COC(=O)[C@]3(O)CC
- percent viability: 261%

Structure (SMILES): O=C(O)c1ccc(NC(=O)[C@H](Cc2ccc(O)cc2)NC(=O)c2ccccc2)cc1 [Chymex]
- percent viability: 240%

Structure (SMILES): CO/N=C(\C(=O)N[C@@H]1C(=O)N2C(C(=O)O)=C(C)CS[C@H]12)c1csc(N)n1 [cefetamet]
- percent viability: 73.3%

Structure (SMILES): C[C@H]1c2cccc(O)c2C(O)=C2C(=O)[C@]3(O)C(O)=C(C(N)=O)C(=O)[C@@H](N(C)C)[C@@H]3[C@@H](O)[C@@H]21 [doxycycline]
- percent viability: 50.8%

Structure (SMILES): COc1nc(N)nc2c1ncn2[C@@H]1O[C@H](CO)[C@@H](O)[C@@H]1O [nelarabine]
- percent viability: 262%

Structure (SMILES): CC/C=C\C/C=C\C/C=C\CCCCCCCC(=O)O
- percent viability: 177% and 171%

Structure (SMILES): Cc1ncc(CO)c(CO)c1O [pyridoxine]
- percent viability: 304%

Structure (SMILES): NC(=O)c1cn(Cc2c(F)cccc2F)nn1 [rufinamide]
- percent viability: 299%

Structure (SMILES): COc1ccccc1OCCOCCOCCN1CCCCC1 [guaiapate]
- percent viability: 157%

Structure (SMILES): CCCCCCCCCCCC[N+](C)(C)CC(=O)OCC [laurcetium iodide]
- percent viability: 138%

Structure (SMILES): COC(=O)N/N=C/c1c[n+]([O-])c2ccccc2[n+]1[O-]
- percent viability: 151%

Structure (SMILES): CN1CCN(CCCN2c3ccccc3Sc3ccc(C(F)(F)F)cc32)CC1 [trifluoperazine]
- percent viability: 220% and 436%

Structure (SMILES): NCCC[C@H](N)C(=O)O [ornithine]
- percent viability: 142% and 263% and 305%
